Reference: PubChem BioAssay AID1224830 (NIAID, 2016)
Here is one part, drawn at random, of about 18,000 reagents tested. About 2,900 of them (16%) count as active. 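Calls are made per well; low scores hint the gene aids the LPS response, high scores that it dampens it.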 Repeated entries: four replicate wells of each siRNA pool.

- Aim: 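Host factors that control LPS-induced TNF expression in human macrophages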 (primary screen)
- Cells: human THP-1 monocytic leukaemia cells, TNF dual-luciferase reporter clone, PMA-differentiated to macrophage-like cells
- Reagent: siRNA pool against human genes, 50 nM
- Time to read-out: LPS for 4 h, given about 3 days after siRNA transfection
- Treatment: bacterial LPS (TLR4 ligand), 10 ng/ml
- Measured: 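Ratio of firefly to renilla light, scaled to the plate median and expressed as a robust z-score per replicate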
- Scale: TNF reporter robust z-score: higher = stronger TNF reporter response to LPS
- Call rule: 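Each well counts as active if its z-score is over 2.8 or under -1.5; controls are left without a call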

Which result is listed for DOCK10?
TNF reporter robust z-score: -1.36; Outcome: inactive

Which result is listed for DOCK10?
TNF reporter robust z-score: -1.01; Outcome: inactive

With DOCK10, what was measured?
TNF reporter robust z-score: -0.1; Outcome: inactive

What is on record for DOCK10?
TNF reporter robust z-score: -0.83; Outcome: inactive

For TMEM252, how do the results read?
TNF reporter robust z-score: -0.16; Outcome: inactive

How did the screen score TMEM252?
TNF reporter robust z-score: 1.92; Outcome: inactive

Which result is listed for TMEM252?
TNF reporter robust z-score: 0.27; Outcome: inactive

How did the screen score TMEM252?
TNF reporter robust z-score: 1.16; Outcome: inactive

With CREB5, what does the deposit list?
TNF reporter robust z-score: -0.19; Outcome: inactive

With CREB5, how do the results read?
TNF reporter robust z-score: -1.01; Outcome: inactive

Which result is listed for CREB5?
TNF reporter robust z-score: -0.24; Outcome: inactive

For CREB5, what was measured?
TNF reporter robust z-score: -0.96; Outcome: inactive

What did the screen give for KIF3C?
TNF reporter robust z-score: 0.16; Outcome: inactive

Which result is listed for KIF3C?
TNF reporter robust z-score: 1.08; Outcome: inactive

What did the screen give for KIF3C?
TNF reporter robust z-score: 1.18; Outcome: inactive

For KIF3C, what was measured?
TNF reporter robust z-score: 0.52; Outcome: inactive

What did the screen give for SLC25A45?
TNF reporter robust z-score: -1.49; Outcome: inactive

With SLC25A45, what was measured?
TNF reporter robust z-score: -1.28; Outcome: inactive

How did the screen score SLC25A45?
TNF reporter robust z-score: -1.22; Outcome: inactive

How did the screen score INPP5D?
TNF reporter robust z-score: 0.01; Outcome: inactive

What did the screen give for INPP5D?
TNF reporter robust z-score: -0.45; Outcome: inactive

For INPP5D, what was measured?
TNF reporter robust z-score: 0.06; Outcome: inactive

How did the screen score INPP5D?
TNF reporter robust z-score: -0.09; Outcome: inactive

6 of these entries, reformatted.
Target gene,TNF reporter robust z-score,Outcome
KIF3C,0.16,inactive
KIF3C,1.08,inactive
KIF3C,1.18,inactive
KIF3C,0.52,inactive
SLC25A45,-1.49,inactive
SLC25A45,-1.28,inactive

Additional results follow:
Which result is listed for AFTPH?
TNF reporter robust z-score: 0.21; Outcome: inactive

What did the screen give for AFTPH?
TNF reporter robust z-score: 1.14; Outcome: inactive

What did the screen give for AFTPH?
TNF reporter robust z-score: 1.7; Outcome: inactive

With AFTPH, how do the results read?
TNF reporter robust z-score: -0.75; Outcome: inactive

For SIRPA, what was measured?
TNF reporter robust z-score: 0.07; Outcome: inactive

With SIRPA, what was measured?
TNF reporter robust z-score: -0.57; Outcome: inactive

What did the screen give for SIRPA?
TNF reporter robust z-score: -0.08; Outcome: inactive

For SIRPA, what was measured?
TNF reporter robust z-score: -0.06; Outcome: inactive

What did the screen give for RRAS2?
TNF reporter robust z-score: 0.69; Outcome: inactive

With RRAS2, what was measured?
TNF reporter robust z-score: 0.23; Outcome: inactive

What did the screen give for RRAS2?
TNF reporter robust z-score: 0.32; Outcome: inactive

How did the screen score RRAS2?
TNF reporter robust z-score: 1.41; Outcome: inactive
